Source: article PMC8496311
Results are given in words; binding and its absence hold for the method and conditions named. Binding seen in cells or lysates may run through a third protein.

Molecular target: T1, Innexin 2 (Drosophila (endogenous in ovary)) (UniProt Q9V427)
T1 sequence: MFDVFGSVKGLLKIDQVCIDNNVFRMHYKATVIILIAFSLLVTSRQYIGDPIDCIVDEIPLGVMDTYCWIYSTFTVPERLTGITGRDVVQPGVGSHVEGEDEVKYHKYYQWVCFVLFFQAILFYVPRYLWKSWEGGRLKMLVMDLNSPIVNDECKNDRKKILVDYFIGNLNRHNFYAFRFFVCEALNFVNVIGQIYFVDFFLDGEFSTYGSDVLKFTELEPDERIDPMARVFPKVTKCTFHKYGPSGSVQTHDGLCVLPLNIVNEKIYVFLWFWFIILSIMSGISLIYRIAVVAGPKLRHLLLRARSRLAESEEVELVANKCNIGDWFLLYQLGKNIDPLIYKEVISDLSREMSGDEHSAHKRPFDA
Assay: proximity ligation; fixed (4% PFA) whole-mount Drosophila ovaries; primary antibodies against the two endogenous proteins, goat anti-guinea pig IgG conjugated with Plus oligonucleotide (Duolink); punctate signals counted in single confocal slices

With “α Tubulin (Drosophila (endogenous in ovary))” the binding was “no binding”.
